{
  "source": "paper PMC4243950",
  "about": "“Characterization of the accessory protein ClpT1 from Arabidopsis thaliana: oligomerization status and interaction with Hsp100 chaperones” (BMC Plant Biology, 2014)",
  "binders": {"B1": {"name": "E. coli ferredoxin (protein, UniProt P0A9R4 1-111)", "chain": "MPKIVILPHQDLCPDGAVLEANSGETILDAALRNGIEIEHACEKSCACTTCHCIVREGFDSLPESSEQEDDMLDKAWGLEPESRLSCQARVTDEDLVVEIPRYTINHAREH"}},
  "target": "E. coli ferredoxin (E. coli) (UniProt P0A9R4)",
  "assay": "condition: 25 μM protein, up to 50-fold molar excess of EGS; cross-linking; EGS at 10, 20, 30 and 50-fold molar excess, 25 μM protein, 50 mM Hepes pH 7.5, 100 mM NaCl, 30 min at room temperature; SDS-PAGE with Coomassie staining; both purified",
  "note": "These are yes or no findings as the source states them, for the method shown.",
  "data": [
    {"binder": "B1", "values": [
      {"measurement": "binding", "value": "no binding"}
    ]}
  ]
}
